53 molecules from the supplement of paper PMC9877034 can be followed below.

Structures can show the parent of a compound that is named as a salt. Over roughly 1,000 compounds, “cFRET/donor change relative to DMSO, normalised to beta-lapachone positive control (supercomplex I-IV assembly)” has its median near 0.18; the lowest 2% begin near -1. Some of the results follow.

The test system of the test is C2C12 (NDUFB8-AcGFP / COX8A-DsRed-Monomer FRET reporter). Put plainly: cFRET/donor change relative to DMSO, normalised to beta-lapachone positive control (supercomplex I-IV assembly) (fraction of beta-lapachone effect); higher = more respiratory supercomplex assembly. As to conditions: 40 µM; 24 h. The protocol:
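Cells were treated with 40 uM compound for 24 h and imaged on an IN Cell Analyzer 6000. Corrected FRET was divided by donor signal (cFRET/donor) and measured in two replicate experiments. The score is (mean cFRET/donor of compound - mean DMSO) / (mean beta-lapachone 40 uM - mean DMSO). Compounds flagged for prominent cell death, abnormal morphology or decreased cell number were excluded.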
Take `NS(=O)(=O)c1cc2c(cc1Cl)N=CNS2(=O)=O` [Chlorothiazide]: the cFRET/donor change was found to be 0.223.

In turn, `CC(C)COCC(CN(Cc1ccccc1)c1ccccc1)N1CCCC1` (stereo not drawn) [Bepridil hydrochloride] returned a cFRET/donor change of 0.0615. The same measure for `Cn1c(=O)c2[nH]c(C3CCCC3)nc2n(C)c1=O` [8-Cyclopentyl-1,3-dimethylxanthine]: 0.158; for `NC(=O)c1ncn([C@@H]2O[C@H](CO)[C@@H](O)[C@H]2O)n1` [Ribavirin]: 0.0289. The molecule `Cc1[nH]c(=O)c(C#N)cc1-c1ccncc1` [Milrinone] gave a cFRET/donor change of 0.195. `CN(C)CCC=C1c2ccccc2CCc2ccccc21` [Amitriptyline hydrochloride] gave a cFRET/donor change of 0.274. The same measure for `Cn1c(=O)c2[nH]cnc2n(C)c1=O` [Aminophylline ethylenediamine]: 0.314; for `COc1cc(/C=C/C(=O)N2CCC=CC2=O)cc(OC)c1OC` [Piperlongumine]: -0.315. Molecule `C=C[C@H]1CN2CC[C@H]1C[C@@H]2[C@@H](O)c1ccnc2ccc(OC)cc12` [Quinidine sulfate] registered a cFRET/donor change of 0.441. For the molecule `CNC(=O)[C@H]1O[C@@H](n2cnc3c(NCc4cccc(I)c4)ncnc32)[C@H](O)[C@@H]1O`, the cFRET/donor change was found to be 0.503.

As to `O=C1CCC(N2C(=O)c3ccccc3C2=O)C(=O)N1` (racemic) [(±)-Thalidomide], the cFRET/donor change is -0.132.

As for `COc1ccc(S(=O)(=O)Nc2nc(-c3cccc([N+](=O)[O-])c3)cs2)cc1OC`, the cFRET/donor change came out at 0.458. The same measure for `NC(N)=NCc1cccc(I)c1` [m-Iodobenzylguanidine hemisulfate]: -0.0455. `NS(=O)(=O)c1cccc2c1c([N+](=O)[O-])cc1nc(O)c(O)nc12` [NBQX disodium] registered a cFRET/donor change of -0.264. In turn, `N#CC(=C(/N)Sc1ccccc1N)/C(C#N)=C(/N)Sc1ccccc1N` showed a cFRET/donor change of 1.14. For `CN(C)c1cc2c(Nc3ccc4c(cnn4Cc4ccccc4)c3)ncnc2cn1` the value was -7.46; for `C=C1C[C@@]23CC[C@H]4[C@@](C)(CCC[C@@]4(C)C(=O)O[C@@H]4O[C@H](CO)[C@@H](O)[C@H](O)[C@H]4O)[C@@H]2CC[C@]1(O[C@@H]1O[C@H](CO)[C@@H](O)[C@H](O)[C@H]1O[C@@H]1O[C@H](CO)[C@@H](O)[C@H](O)[C@H]1O)C3` [Stevioside], 0.0782. In the case of `NC(=O)C(=O)O` [Sodium Oxamate], the cFRET/donor change was determined as 0.258. For `COc1cc(Cc2cnc(N)nc2N)cc(OC)c1OC` [Trimethoprim] the value was -0.0387; for `CN1CCc2ccccc2Cc2[nH]c3ccccc3c2CC1`, 0.57. Molecule `Nc1ccc(-c2nc3ccc(-c4nc5ccc(N)cc5[nH]4)cc3[nH]2)cc1` showed a cFRET/donor change of -0.494.

`O=c1ccc2ccc(O)c(O)c2o1` [Daphnetin] displayed a cFRET/donor change of 0.438. The same measure for `CC(=O)NCCc1c[nH]c2ccc(O)cc12` [N-Acetyl-5-hydroxytryptamine]: 0.125; for `CCCN(CCC)C(=O)C(CCC(=O)O)NC(=O)c1ccccc1` (stereo not drawn) [Proglumide]: 0.00228; for `CN1CCC(=C2c3ccccc3CC(=O)c3sccc32)CC1` [Ketotifen fumarate]: 2.99. The same measure for `COc1ccccc1N1CCN(CC(O)COc2cccc3ccccc23)CC1` (stereo not drawn) [Naftopidil dihydrochloride]: 0.0361; for `COCCOc1cc2nc[nH]c(=O)c2cc1OCCOC`: 0.343. As to `S=C(Nc1ccccc1)Nc1nccs1` [1-Phenyl-3-(2-thiazolyl)-2-thiourea], the cFRET/donor change was -0.184. The molecule `CS(=O)(=O)c1cccc(CNc2nc(Nc3ccc4c(c3)CCC(=O)N4)ncc2C(F)(F)F)c1` showed a cFRET/donor change of 2.

Molecule `COc1ccc(-c2ccc(=N)n(CCCC(=O)O)n2)cc1` had a cFRET/donor change of -0.0951.

Consider `CSc1ccc(C(=O)c2[nH]c(=O)[nH]c2C)cc1` [Enoximone], for which the cFRET/donor change turned out to be 0.0139. In the case of `N[C@@H](Cn1ccc(=O)c(O)c1)C(=O)O` [L-Mimosine from Koa hoale seeds], the cFRET/donor change was found to be 0.525. The molecule `CC1(C2CCCC2)Cc2cc(OCC(=O)O)c(Cl)c(Cl)c2C1=O` (stereo not drawn) displayed a cFRET/donor change of 0.0296. For `CO[C@H]1O[C@@H]2O[C@@]3(C)CC[C@H]4[C@H](C)CC[C@@H]([C@H]1C)[C@@]24OO3` [Artemether] the value was 0.954. For `N#C/C(=C\c1ccc(O)c(O)c1)C(=O)c1ccc(O)c(O)c1` [Tyrphostin AG 538] the value was -0.47. The same measure for `NC12CC3CC(CC(C3)C1)C2` [Amantadine hydrochloride]: 0.0173. `CC(=O)[C@H]1CC[C@H]2[C@@H]3CC=C4C[C@@H](OS(=O)(=O)O)CC[C@]4(C)[C@H]3CC[C@]12C` [Pregnenolone sulfate sodium] registered a cFRET/donor change of 0.0635.

Consider `NCC=CC(=O)O` (stereo in doubt) [cis-4-Aminocrotonic acid], for which the cFRET/donor change is 0.532. For `CN1CCN(C2=Nc3cc(Cl)ccc3Nc3ccccc32)CC1` [Clozapine] the value was 0.262.

In turn, `O=C(O)c1ccccc1Nc1ccccc1` [N-Phenylanthranilic acid] returned a cFRET/donor change of 0.206. The same measure for `Brc1ccc([C@H]2CN3CCSC3=N2)cc1` [S(-)-p-Bromotetramisole oxalate]: 0.185. For `C=CC[C@H](N)C(=O)O` [L-allylglycine], the cFRET/donor change is -0.0304.

Turning to `CC(C)NC[C@H](O)COc1ccc(CC(N)=O)cc1` [S(-)-Atenolol], the cFRET/donor change turned out to be 0.102. For `c1cnc2c(c1)ccc1cccnc12` [1,10-Phenanthroline monohydrate] the value was -0.0997; for `CO[C@@]1(NC(=O)CSCC#N)C(=O)N2C(C(=O)O)=C(CSc3nnnn3C)CS[C@@H]21` [Cefmetazole sodium], 0.501; for `CN1CCc2cccc3c2[C@H]1Cc1ccc(O)c(O)c1-3` [Apomorphine hydrochloride hemihydrate], -0.23. The same measure for `CCC(NC(C)C)C(O)c1ccc(O)c(O)c1` (stereo not drawn) [Isotharine mesylate]: 0.454. `NCCCCNCCCN` [Spermidine trihydrochloride] showed a cFRET/donor change of -0.058. `NC(Cc1cccc(-c2ccccc2CP(=O)(O)O)c1)C(=O)O` (stereo not drawn) [Phenylbenzene-omega-phosphono-alpha-amino acid] yielded a cFRET/donor change of 0.0887. Take `N[C@H](CO)C(=O)O` [D-Serine]: the cFRET/donor change was found to be 0.172. For `CC(C)(C)c1ccc(C(O)CCCN2CCC(C(O)(c3ccccc3)c3ccccc3)CC2)cc1` (stereo not drawn) [Terfenadine] the value was 0.479; for `CC(C)c1ccc2c(c1)c(SC(C)(C)C)c(CC(C)(C)C(=O)O)n2Cc1ccc(Cl)cc1`, 0.423. For `CC(C)Cn1c(=O)n(C)c(=O)c2[nH]cnc21` [3-Isobutyl-1-methylxanthine] the value was 0.0157.
